{"source": "PubChem BioAssay AID493014", "about": "(National Center for Advancing Translational Sciences (NCATS), 2011)", "note": "The whole screen tested about 340,000 compounds, of which about 170 (0.05%) were called active. Inconclusive means that the source gave no clear call. Such entries were picked first, then a sample of the others. Calls come from the whole dose curve; as a rule, active = well fitted inhibition curve with a large enough effect in the signal ratio, with a control signal flat (not every such curve was filed as active); inconclusive = small, poorly fitted or top-dose-only effect, or effect the other way, or a change in a side signal; inactive = flat fitted curve, though single readings scatter; the % refers to the signal ratio. Where the call is inconclusive, the potency comes from a doubtful curve fit. Potency is the fitted concentration of half-maximal effect.", "data": [{"assay": "qHTS Assay to Find Inhibitors of Chronic Active B-Cell Receptor Signaling;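 for activity change, negative = inhibition: plate controls were basal doxycycline-induced cells for no effect and cells given 10 µM MG132 for full effect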", "conditions": "ABC-DLBCL IkBa-CBG/CBR reporter, luminescence ratio (green luciferase fused to IkBa over red control in TMD8 lymphoma cells), 4 h; activity change, negative = inhibition: at 46.1 µM (top of the series) unless noted", "summary_of_the_method": "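Cell line TMD8 (human ABC DLBCL), stably expressing tet-inducible CBG68-IkBa fusion and CBR; IMDM/0.5% FBS; cpd up to 46 uM; dox induction, 4 h, 37C/5% CO2; dual luminescence; green/red ratio; MG132 control.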", "values": [{"smiles": "Cn1cc(SCC(N)=O)c2ccccc21", "activity change, negative = inhibition": "inconclusive: 5.27%"}, {"smiles": "Cn1c(C(=O)N2CCN(c3ncccn3)CC2)cc2c(=O)n(C)c3ccccc3c21", "activity change, negative = inhibition": "inconclusive: 0.639%"}, {"smiles": "CN(CC(=O)Nc1ccc(Cl)cc1)CC(=O)Nc1cccc(Br)c1", "Potency": "inconclusive: 15.8 µM [falling, single point]"}, {"smiles": "CC(=O)N1CCN(CC(=O)Nc2ccc([N+](=O)[O-])cc2Br)CC1", "activity change, negative = inhibition": "inconclusive: -2.57%"}, {"smiles": "Cc1ccc(-c2cc(C(=O)OCn3nnc4ccccc4c3=O)c3ccccc3n2)cc1", "activity change, negative = inhibition": "inconclusive: 4.09%"}, {"smiles": "N#Cc1cc(C(=O)c2cc(Cl)ccc2O)cn(CC2CCCO2)c1=O", "note": "(stereo not given)", "activity change, negative = inhibition": "inconclusive: 7.39%"}, {"smiles": "NC(=O)c1c(-c2ccc(Cl)cc2Cl)csc1NC(=O)Cc1ccccc1", "activity change, negative = inhibition": "inactive"}, {"smiles": "CCCn1c(SC(C)C(=O)N2CCOCC2)nc2ccc(Br)cc2c1=O", "note": "(stereo not given)", "Potency": "inconclusive: 32.6 µM [rising, partial curve, poor fit]"}, {"smiles": "CCc1nnc2sc(-c3cc(-c4ccccc4)nc4ccccc34)nn12", "activity change, negative = inhibition": "inconclusive: -2.51%"}, {"smiles": "O=C(c1ccc(S(=O)(=O)c2ccc(F)cc2)c([N+](=O)[O-])c1)N1CCCCCC1", "Potency": "inconclusive: 29.1 µM [falling, single point]"}, {"smiles": "O=c1c2ccccc2cnn1-c1nc2ccccc2[nH]1", "Potency": "inconclusive: 0.631 µM [rising, partial curve, poor fit]"}, {"smiles": "COCCn1c(SCC(=O)Nc2ccccc2F)nc2c(c1=O)SCC2", "activity change, negative = inhibition": "inconclusive: -1.38%"}, {"smiles": "COC(=O)c1cc(C(=O)OC)[nH]n1", "activity change, negative = inhibition": "inconclusive: 0.835%"}, {"smiles": "NCC12CC3CC(C1)CC(c1ccc(Cl)cc1)(C3)C2", "activity change, negative = inhibition": "inactive"}, {"smiles": "CCOc1ccc(CO[C@@H]2O[C@H](CO)[C@@H](O)[C@H](O)[C@H]2NC(C)=O)cc1OC", "activity change, negative = inhibition": "inconclusive: 7.12%"}, {"smiles": "CN1CCS/C1=C/C=C1/SC(=S)N(Cc2ccccc2)C1=O", "activity change, negative = inhibition": "inconclusive: 0.264%"}, {"smiles": "CC(C)Cn1cnc2sc3c(c2c1=N)CCCC3", "activity change, negative = inhibition": "inconclusive: -13.2%"}, {"smiles": "Cc1nc2ccc(NC(=O)COc3ccccc3F)cc2s1", "activity change, negative = inhibition": "inconclusive: 2.76%"}, {"smiles": "COc1ccc(S(=O)(=O)N(CC(=O)Nc2ccc(Br)cc2)Cc2ccccc2)cc1", "activity change, negative = inhibition": "inconclusive: 23.6%"}, {"smiles": "CCOC(=O)c1c(C)[nH]c(-c2csc(C)n2)c1C", "activity change, negative = inhibition": "inconclusive: 1.16%"}, {"smiles": "CNC(C)C(=O)NC(C(=O)N1CCCC1C(=O)NC1CCCc2ccccc21)C(C)C", "note": "(stereo not given)", "activity change, negative = inhibition": "inconclusive: 9.29%"}, {"smiles": "CCCCNS(=O)(=O)c1ccc2nc(SCC(=O)c3ccc(C#N)cc3)[nH]c2c1", "Potency": "inconclusive: 22.4 µM [falling, single point]"}, {"smiles": "CN(C)c1ccc(CNCCC(Cc2ccccc2)c2ccco2)cc1", "note": "(stereo not given)", "activity change, negative = inhibition": "inconclusive: 5.54%"}, {"smiles": "Cc1ccc2nc(SCC(=O)NCc3ccc(F)cc3)nc(=O)n2c1", "activity change, negative = inhibition": "inconclusive: 10.6%"}, {"smiles": "Cc1cccc(C)c1NC(=O)CN(C)C(=O)C1CC(=O)N(c2cccc3ccccc23)C1", "note": "(stereo not given)", "activity change, negative = inhibition": "inactive"}, {"smiles": "N#C/C(N)=C(/C#N)N=Cc1cccc(Cl)c1", "activity change, negative = inhibition": "inconclusive: -0.471%"}, {"smiles": "COc1ccc(C2c3ccc4ccccc4c3Oc3ncn(CCO)c(=N)c32)cc1OC", "note": "(stereo not given)", "Potency": "inconclusive: 22.4 µM [falling, single point]"}, {"smiles": "COc1ccc(-c2cc(C(F)(F)F)n3nc(C(=O)N4CCCC4)cc3n2)cc1", "activity change, negative = inhibition": "inactive"}, {"smiles": "O=C(Nc1nccs1)C1CCN(S(=O)(=O)c2cnc[nH]2)CC1", "activity change, negative = inhibition": "inconclusive: -10.2%"}, {"smiles": "O=C(Nc1cccc(Br)c1)c1cc(=O)c2ccccc2o1", "activity change, negative = inhibition": "inconclusive: 5.79%"}, {"smiles": "O=C(OCC(=O)N1CCCC1)c1ccc(S(=O)(=O)N2CCOCC2)cc1", "activity change, negative = inhibition": "inactive"}, {"smiles": "CCCCCc1ccc(-c2cn(Cc3cccc(OC)c3)nn2)cc1", "Potency": "inconclusive: 11.2 µM [rising, partial curve, poor fit]"}, {"smiles": "CCN(Cc1ccccc1)S(=O)(=O)c1ccc2c(c1)NC(=O)CC(=O)N2", "activity change, negative = inhibition": "inactive"}, {"smiles": "CCOC(=O)c1sc(NC(=O)CC(C)c2ccccc2)nc1C", "note": "(stereo not given)", "activity change, negative = inhibition": "inconclusive: -1.02%"}, {"smiles": "CNC(=S)N/N=C(\\C)c1ccccc1", "Potency": "inconclusive: 35.5 µM [falling, single point]"}, {"smiles": "O=C(NCCN1C(=O)S/C(=C/c2ccccc2)C1=O)C1CC(=O)N(Cc2ccccc2)C1", "note": "(stereo not given)", "activity change, negative = inhibition": "inconclusive: -11%"}, {"smiles": "CCOc1cc(C(=O)NC(=S)Nn2cnnc2)cc(OCC)c1OCC", "activity change, negative = inhibition": "inconclusive: -5.88%"}, {"smiles": "CCOc1ccc2nc(NC3=NC(C)(C)C=C(C)N3)nc(C)c2c1", "Potency": "inconclusive: 18.4 µM [rising, partial curve, poor fit]"}, {"smiles": "CCCc1cc(C(F)(F)F)c(C#N)c(=O)[nH]1", "Potency": "inconclusive: 1.64 µM [rising, full curve, poor fit]"}, {"smiles": "Cc1ccsc1C1CC(=O)Nc2ccccc2S1", "note": "(stereo not given)", "Potency": "inconclusive: 10 µM [falling, partial curve, poor fit]"}, {"smiles": "COC(=O)C1CCN(C(=O)COc2ccc(Cl)cc2)CC1", "Potency": "inconclusive: 4.61 µM [falling, single point]"}, {"smiles": "NCC12CC3CC(C1)CC(c1ccc(Br)cc1)(C3)C2", "activity change, negative = inhibition": "inconclusive: -22.5%"}, {"smiles": "Cc1ccc(-c2csc(Cc3nc(-c4cc5ccccc5oc4=O)cs3)n2)cc1", "Potency": "inconclusive: 14.1 µM [falling, partial curve, poor fit]"}, {"smiles": "N/C(Cc1cccc2ccccc12)=N\\OC(=O)c1ccccc1F", "activity change, negative = inhibition": "inactive"}, {"smiles": "CCOCC(=O)Nc1nc2ccc(C)cc2s1", "Potency": "inconclusive: 20.6 µM [falling, partial curve]"}, {"smiles": "O=c1c2ccccc2nc(/C=C/c2ccc(Br)cc2)n1CCCO", "activity change, negative = inhibition": "inconclusive: 3.92%"}, {"smiles": "CC(=O)O[C@H](CC(=O)O)C[N+](C)(C)C", "activity change, negative = inhibition": "inactive"}, {"smiles": "CCc1ccc(OCC(=O)NC(=S)Nc2ccc(C)cc2C)c(Br)c1", "activity change, negative = inhibition": "inconclusive: 19.8%"}, {"smiles": "COC(=O)CSc1ccc(C#N)c(SCC(=O)OC)c1", "Potency": "inconclusive: 8.91 µM [rising, partial curve, poor fit]"}, {"smiles": "Cc1ccc(OCCNc2ccc(C(F)(F)F)cc2[N+](=O)[O-])cc1", "activity change, negative = inhibition": "inconclusive: 13.7%"}, {"smiles": "CC(=O)c1ccc2c3c(ccc(O)c13)CC2", "activity change, negative = inhibition": "inconclusive: -0.224%"}, {"smiles": "CC1(C)NC(=O)N(CC(=O)N2CCN(c3cccc(C(F)(F)F)c3)CC2)C1=O", "activity change, negative = inhibition": "inactive"}, {"smiles": "Cc1c(C)c2c(OCC(=O)NCc3ccco3)cc3c(c2oc1=O)CCC(C)(C)O3", "activity change, negative = inhibition": "inactive"}, {"smiles": "CC(C)Cn1c(N)c(C(=O)NCCN2CCOCC2)c2nc3ccccc3nc21", "activity change, negative = inhibition": "inconclusive: 11.3%"}, {"smiles": "COc1ccc(CNC(=O)c2cc(-n3cnnc3)ccc2Cl)cc1", "activity change, negative = inhibition": "inconclusive: 1.2%"}, {"smiles": "Cc1c(/C(O)=C2/C(=O)C(=O)N(CCN3CCOCC3)C2c2cccs2)cnn1-c1ccccc1", "note": "(stereo not given)", "Potency": "inconclusive: 7.31 µM [rising, partial curve, poor fit]"}, {"smiles": "COC(=O)CCC(=O)NC(=S)Nc1cc(Cl)ccc1Cl", "Potency": "inconclusive: 7.08 µM [falling, partial curve, poor fit]"}, {"smiles": "O=C(C1CCCN(Cc2ccccc2F)C1)N1CCCCC1", "note": "(stereo not given)", "activity change, negative = inhibition": "inactive"}, {"smiles": "COc1cccc(-c2cc(C(=O)N3CCc4ccccc4C3)[nH]n2)c1", "Potency": "inconclusive: 20 µM [falling, partial curve, poor fit]"}, {"smiles": "O=C(Nc1cccs1)N1CCN(c2ncccn2)CC1", "activity change, negative = inhibition": "inconclusive: 1.67%"}, {"smiles": "Cc1ccc(NC(=O)COC(=O)c2csc3c2CCC(C)C3)cc1S(=O)(=O)N1CCCCC1", "note": "(stereo not given)", "activity change, negative = inhibition": "inconclusive: 9.89%"}, {"smiles": "COc1ccc(-c2cn[nH]c2-c2ccc(O)cc2O)cc1OC", "activity change, negative = inhibition": "inactive"}, {"smiles": "COc1ccc(S(=O)(=O)N2CCN(C)CC2)c2ccccc12", "activity change, negative = inhibition": "inconclusive: 6.75%"}, {"smiles": "Clc1ccc(N2N=C(c3cccs3)CC2c2ccco2)cc1", "note": "(stereo not given)", "Potency": "inconclusive: 35.5 µM [rising, partial curve, poor fit]"}, {"smiles": "CCOC(=O)c1[nH]c(C)c(CN(C(C)=O)c2ccc(OCC)cc2)c1C", "Potency": "inconclusive: 35.5 µM [falling, single point]"}, {"smiles": "O=C(c1ccco1)c1cn(CC(=O)N2CCCC2)c2ccccc12", "activity change, negative = inhibition": "inconclusive: -3.72%"}, {"smiles": "CC[N+](C)(CC)CCC(c1ccccc1)C1CCCCC1", "note": "(stereo not given)", "activity change, negative = inhibition": "inactive"}, {"smiles": "Cc1ccc(NC(=O)NCC(c2ccccc2)N(C)C)cc1", "note": "(stereo not given)", "activity change, negative = inhibition": "inconclusive: 5.81%"}, {"smiles": "Cc1ccnc2nc(C(=O)NCCc3ccc(F)cc3)nn12", "activity change, negative = inhibition": "inconclusive: -9.66%"}, {"smiles": "CCC(=O)N1CCN(c2ccccc2NC(=O)COc2cccc(C)c2C)CC1", "activity change, negative = inhibition": "inconclusive: -5.66%"}, {"smiles": "COc1cc(C(=O)Oc2cccc(Nc3ncnc4ccccc34)c2)cc(OC)c1OC", "Potency": "inconclusive: 20 µM [falling, single point]"}, {"smiles": "CCc1cc(=O)oc2c3c(cc(OCC(=O)NCCCCCC(=O)O)c12)OC(C)(C)CC3", "activity change, negative = inhibition": "inconclusive: -7.49%"}, {"smiles": "Cc1c(NC(=O)c2ccc(-c3ccccc3)cc2)cccc1C(=O)O", "Potency": "inconclusive: 31.6 µM [rising, single point]"}, {"smiles": "O=C(c1ccc(CNS(=O)(=O)c2ccccc2)cc1)N1CCN(c2ccccn2)CC1", "activity change, negative = inhibition": "inconclusive: -3.14%"}, {"smiles": "CCc1nc(SCC(=O)Nc2ccccc2C(=O)OC)n[nH]1", "activity change, negative = inhibition": "inconclusive: -17.2%"}, {"smiles": "COC(=O)c1ccc2c(=O)[nH]c(COC(=O)c3[nH]c(C)c(C(C)=O)c3C)nc2c1", "activity change, negative = inhibition": "inconclusive: 2.98%"}, {"smiles": "O=C(Nc1ccc(F)c(F)c1)c1cc(S(=O)(=O)NC2CCCC2)ccc1F", "Potency": "inconclusive: 2.51 µM [falling, single point]"}, {"smiles": "COc1ccc(NC(=O)c2ccc(C#CC(C)(C)O)cc2)cc1", "Potency": "inconclusive: 20.6 µM [falling, single point]"}, {"smiles": "O=C(Nc1ccccn1)c1ccc(CN(c2ccccc2)S(=O)(=O)c2ccccc2)cc1", "activity change, negative = inhibition": "inconclusive: 7.21%"}, {"smiles": "Cc1cc(NC(=O)c2ccc(C#N)cc2)on1", "activity change, negative = inhibition": "inconclusive: 8.29%"}]}]}
